Patent US20060257358A1, “Suspension of calcium phosphate particulates for local delivery of therapeutic agents” (DePuy Products, Inc., priority 2005, published 2006)

Assay: Osteocalcin adsorption, elution and dissolution test on biomimetic apatite (HPLC)
Conditions: 20 μg protein
Description: The test with osteocalcin was conducted by incubating biomimetic apatite prepared on Ti6Al4V substrates with phosphate buffered saline (PBS) containing 0.1 mg/mL (bovine serum albumin) BSA. […] Eighty five percent of the original protein (20 μg) is adsorbed by biomimetic apatite crystals within 3 hours of test. An elution test was designed to further test the affinity of biomimetic apatite to osteocalcin in PBS containing 0.1 mg/mL BSA was measured (FIG. 6). Only ˜6% of the originally applied protein (20 μg) was eluted out from the biomimetic apatite crystals after 20 hours of incubation.

## osteocalcin: a bone tissue specific protein (YLYQWLGAPVPYPDPLEPRREVCELNPDCDELADHIGFQEAYRRFYGPV; UniProt P02818 52-100, looked up)
PBS with 0.1 mg/mL BSA, after 20 hours of incubation
  originally applied protein eluted out from the biomimetic apatite crystals: ~6%
Minerals fully dissolved in acid
  protein recovered after dissolution of the minerals in acid: ~64%
